{"source": "PubChem BioAssay AID1688", "about": "(National Center for Advancing Translational Sciences (NCATS), 2009)", "note": "In all, about 220,000 compounds went through this assay and about 2,400 (1.1%) were called active. The inconclusive results got no clear call from the source; some entries with a clear call stand among them for comparison. The call rests on the fitted dose curve; in most records, active means well fitted inhibition curve with a large enough effect; inconclusive means small, poorly fitted or top-dose-only effect, or effect the other way; inactive means no such curve, though single readings can be large or run the other way. A potency beside an inconclusive call is a rough fit, not a confirmed value. On the % scale 0 is the no-effect control and ±100 the full control effect; potency means the concentration at half of the fitted maximal effect.", "data": [{"test": "qHTS Multiplex Assay to Identify Dual Action Probes in a Cell Model of Huntington: Aggregate Formation (GFP); further: nearly all actives have a fitted effect of over 60% in size", "conditions": "PC12 HttQ103-GFP aggregates, Acumen cytometry, 40 h; activity change, negative = inhibition: at 46.1 µM (top of the series) unless noted", "method_in_brief": "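PC12 cells stably carrying ecdysone-inducible HTT exon 1 Q103–GFP were induced with tebufenozide (100 nM final) and treated with library compounds in titration. GFP aggregates in lysates were counted by laser scanning cytometry.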", "values": [{"smiles": "O=C(NCc1cccs1)c1nc2c(nnn2Cc2ccccc2Cl)c(=O)[nH]1", "Potency": "inconclusive: 15.8 µM [inhibitor, single point]"}, {"smiles": "COc1ccc(/C=N/NC(=O)c2ccccc2O)cc1Cn1cc(Cl)cn1", "activity change, negative = inhibition": "inactive: -5.09%"}, {"smiles": "COc1ccc(O)c(/C=N/NC(=O)c2c(C)nnn2-c2nonc2N)c1", "Potency": "inconclusive: 2.82 µM [inhibitor, full curve]"}, {"smiles": "CC(C)(C)c1ccc(Oc2ccc(NC(=O)c3ccco3)cn2)cc1", "Potency": "inconclusive: 5.62 µM [inhibitor, single point]"}, {"smiles": "COc1ccc(C(=O)Nc2ccc(S(=O)(=O)Nc3nccc(C)n3)cc2)cc1OC", "Potency": "inconclusive: 35.5 µM [activator, single point]"}, {"smiles": "O=C(CCl)NCc1c(Cl)cccc1-n1cccc1", "Potency": "active: 12.6 µM"}, {"smiles": "Cc1cccc(C(=O)N[C@H](C(=O)Nc2nc3ccccc3[nH]2)C(C)C)c1", "Potency": "inconclusive: 12.6 µM [activator, single point]"}, {"smiles": "N=c1c[n+](-c2ccc(Cl)cc2)[n-]o1", "Potency": "inconclusive: 35.5 µM [inhibitor, single point]"}, {"smiles": "CC(C)Sc1nnc(CNC(=O)C23CC4CC(CC(C4)C2)C3)n1Cc1ccccc1", "Potency": "inconclusive: 14.1 µM [inhibitor, single point]"}, {"smiles": "CCCCCCOC(=O)C(C#N)c1nc2ccccc2nc1N1CCN(C)CC1", "note": "(stereo not given)", "Potency": "inconclusive: 25.1 µM [inhibitor, single point]"}, {"smiles": "Cc1[nH]n(-c2ccccc2)c(=O)c1/C=N/O", "Potency": "inconclusive: 2.24 µM [activator, partial curve]"}, {"smiles": "Cc1ccc2c(c1)C(=O)CC1(CCCCCC1)O2", "Potency": "inconclusive: 0.398 µM [inhibitor, full curve, poor fit]"}, {"smiles": "O=C(CCN1CCOCC1)NNC(=S)NC(=O)c1ccccc1", "activity change, negative = inhibition": "inactive: -29.3%"}, {"smiles": "CCC(C)Nc1c2c(nc3c(-c4ccccc4)c(C)nn13)CCC2", "note": "(stereo not given)", "Potency": "inconclusive: 20 µM [inhibitor, single point]"}, {"smiles": "Cc1ccc(NC(=O)CCl)cc1S(=O)(=O)N1CCCCCC1", "Potency": "inconclusive: 35.5 µM [inhibitor, single point]"}, {"smiles": "Cc1nn(CCC#N)c(NC(=O)c2ccc(Cl)cc2Cl)c1P(=O)(Nc1ccc([N+](=O)[O-])cc1)N1CCOCC1", "note": "(stereo not given)", "Potency": "inconclusive: 12.6 µM [activator, partial curve]"}, {"smiles": "O=C(Nc1ccc(Br)cc1)c1cccc(S(=O)(=O)Nc2cnc3ccccc3c2)c1", "Potency": "inconclusive: 28.2 µM [inhibitor, single point]"}, {"smiles": "Clc1nssc1=Nc1ccc(Br)cc1", "Potency": "inconclusive: 15.8 µM [inhibitor, single point]"}, {"smiles": "Cc1ccc(S(=O)(=O)N2CCN(S(=O)(=O)N3CCCCCC3)CC2)cc1", "activity change, negative = inhibition": "inactive: 15.4% [at 9.22 µM]"}, {"smiles": "COC(=O)c1sccc1NC(=O)C1CCCCC1C(=O)O", "note": "(stereo not given)", "Potency": "inconclusive: 31.6 µM [activator, single point]"}, {"smiles": "COc1cccc(-n2c(SCC(=O)NC3CCCCC3)nc3n[nH]c(C)c3c2=N)c1", "Potency": "inconclusive: 35.5 µM [inhibitor, single point]"}, {"smiles": "CN(C(=O)CSc1ncnc2sc(-c3ccccc3)cc12)C1CCS(=O)(=O)C1", "note": "(stereo not given)", "Potency": "inconclusive: 25.1 µM [activator, partial curve]"}, {"smiles": "O=C(N/N=C/c1cccc(C(F)(F)F)c1)C1CCN(c2ncc(C(F)(F)F)cc2Cl)CC1", "activity change, negative = inhibition": "inactive: -12.5%"}, {"smiles": "Cc1ccc(C)c(NCC(O)c2ccccc2)c1", "note": "(stereo not given)", "Potency": "inconclusive: 0.562 µM [activator, full curve, poor fit]"}, {"smiles": "COc1ccc(C(C#N)c2ccc(=O)[nH]n2)cc1", "note": "(stereo not given)", "Potency": "inconclusive: 0.562 µM [activator, full curve, poor fit]"}, {"smiles": "COc1ccc(/C=C2\\SC(=O)N(CCc3nnc(N)s3)C2=O)cc1", "activity change, negative = inhibition": "inactive: -0.448% [at 9.22 µM]"}, {"smiles": "Cc1cccc2c(N=Nc3ccc(S(=O)(=O)Nc4cccc(Cl)c4)cc3[N+](=O)[O-])c(O)[nH]c12", "Potency": "inconclusive: 2.82 µM [activator, partial curve]"}, {"smiles": "CC(=O)CSc1nnc(-c2ccncc2)n1C", "activity change, negative = inhibition": "inactive: 1.65%"}, {"smiles": "COc1ccc(S(=O)(=O)N2CCCN(CC(=O)Nc3ccc4c(c3)OCO4)CC2)cc1", "activity change, negative = inhibition": "inactive: 6.64%"}, {"smiles": "O=C(COC(=O)Cc1cccc(C(F)(F)F)c1)NC1CC1", "Potency": "inconclusive: 5.62 µM [inhibitor, single point]"}, {"smiles": "O=C(Nc1ccccc1Cl)/C(Cl)=C(\\Cl)S(=O)c1ccccc1", "note": "(stereo not given)", "Potency": "inconclusive: 5.62 µM [inhibitor, single point]"}, {"smiles": "COC(=O)Cc1c[nH]c2cccc(OCC(O)CN(Cc3ccccc3)C(C)C)c12", "note": "(stereo not given)", "activity change, negative = inhibition": "inactive: -13.6%"}, {"smiles": "Fc1ccc(Nc2ncnc3sc4c(c23)CCC4)cc1F", "Potency": "active: 10 µM"}, {"smiles": "CCn1nc(C)c(/C=N/NC(=O)c2ccc3c(c2)c(C)c(C)n3Cc2ccccc2)c1C", "Potency": "inconclusive: 3.98 µM [activator, partial curve]"}, {"smiles": "Cc1cc(NC(=O)C2CCCCC2)nc2c1c(=O)oc1ccccc12", "Potency": "inconclusive: 35.5 µM [inhibitor, single point]"}, {"smiles": "CCOC(=O)C1(CCc2ccccc2)CCN(Cc2cccc3nccnc23)CC1", "activity change, negative = inhibition": "inactive: 6.86% [at 9.22 µM]"}, {"smiles": "CCCCN(CCCC)S(=O)(=O)c1ccc(SCC(=O)OCC)c([N+](=O)[O-])c1", "activity change, negative = inhibition": "inactive: 9.1% [at 9.22 µM]"}, {"smiles": "CCCCCn1c(SCCOCC)nc2c1c(=O)[nH]c(=O)n2C", "activity change, negative = inhibition": "inactive: 20.9%"}, {"smiles": "COc1cc2c(C(=O)NCCCOC(C)C)cn(CC(C)C)c(=O)c2cc1OC", "Potency": "inconclusive: 35.5 µM [inhibitor, single point]"}, {"smiles": "Cc1ccc(OCCCNC2CCCC2)cc1", "activity change, negative = inhibition": "inactive: 4.27%"}, {"smiles": "CCOC(=O)N1CCN(S(=O)(=O)c2ccc(C(=O)Nc3nnc(C)o3)cc2)CC1", "Potency": "inconclusive: 2.82 µM [activator, single point]"}, {"smiles": "Cc1ccc2nc(NC(=O)c3ccc(NS(=O)(=O)c4cccs4)cc3)sc2c1", "activity change, negative = inhibition": "inactive: -4.68%"}, {"smiles": "CN(C)CCC[C@@]1(c2ccc(F)cc2)OCc2cc(C#N)ccc21", "activity change, negative = inhibition": "inactive: 2.14%"}, {"smiles": "Fc1ccc(F)c(NC(=S)NCCc2ccccc2)c1", "Potency": "inconclusive: 10 µM [inhibitor, partial curve]"}, {"smiles": "COc1ccc(C)cc1-n1nnnc1SCn1nnc2ccccc2c1=O", "Potency": "inconclusive: 7.08 µM [inhibitor, partial curve]"}]}]}
